In this test the target is T1, Saccharomyces cerevisiae Fig4p (Saccharomyces cerevisiae) (UniProt P42837).
T1 sequence (looked up): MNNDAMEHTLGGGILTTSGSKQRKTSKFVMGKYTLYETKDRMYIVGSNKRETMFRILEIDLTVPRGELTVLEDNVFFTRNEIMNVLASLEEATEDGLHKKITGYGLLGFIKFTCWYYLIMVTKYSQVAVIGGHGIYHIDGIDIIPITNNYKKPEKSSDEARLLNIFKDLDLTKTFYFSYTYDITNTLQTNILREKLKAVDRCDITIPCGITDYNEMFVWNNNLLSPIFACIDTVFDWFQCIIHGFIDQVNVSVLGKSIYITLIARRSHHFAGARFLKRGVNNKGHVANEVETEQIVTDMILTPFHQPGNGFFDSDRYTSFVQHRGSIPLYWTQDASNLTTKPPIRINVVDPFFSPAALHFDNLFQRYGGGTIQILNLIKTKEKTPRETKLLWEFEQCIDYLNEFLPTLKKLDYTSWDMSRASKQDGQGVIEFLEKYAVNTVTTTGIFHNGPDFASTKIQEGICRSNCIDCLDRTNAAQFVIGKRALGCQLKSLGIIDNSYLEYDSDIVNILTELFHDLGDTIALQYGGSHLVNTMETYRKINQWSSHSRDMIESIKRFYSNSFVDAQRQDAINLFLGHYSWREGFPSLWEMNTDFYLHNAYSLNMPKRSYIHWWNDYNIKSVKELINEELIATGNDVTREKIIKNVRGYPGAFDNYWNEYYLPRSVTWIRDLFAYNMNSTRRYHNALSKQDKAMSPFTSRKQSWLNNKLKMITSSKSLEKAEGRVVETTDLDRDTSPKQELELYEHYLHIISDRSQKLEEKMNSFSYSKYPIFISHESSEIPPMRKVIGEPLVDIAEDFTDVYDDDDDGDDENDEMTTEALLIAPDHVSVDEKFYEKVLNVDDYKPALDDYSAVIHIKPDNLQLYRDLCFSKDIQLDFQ
The test can be described thus: yeast two-hybrid.

These are yes or no findings as the source states them, for the method shown. Some binding calls cover weakened binding; strength is not graded here. Tags and fused reporters may be left off the sequences shown.

B1: Saccharomyces cerevisiae Vac14p (other)
chain: MEKSIAKGLSDKLYEKRKAAALELEKLVKQCVLEGDYDRIDKIIDELCRDYAYALHQPMARNAGLMGLAATAIALGINDVGRYLRNILPPVLACFGDQNDQVRFYACESLYNIAKIAKGEILVYFNEIFDVLCKISADTENSVRGAAELLDRLIKDIVAERASNYISIVNNGSHGLLPAIKTDPISGDVYQEEYEQDNQLAFSLPKFIPLLTERIYAINPDTRVFLVDWLKVLLNTPGLELISYLPSFLGGLFTFLGDSHKDVRTVTHTLMDSLLHEVDRISKLQTEIKMKRLERLKMLEDKYNNSSTPTKKADGALIAEKKKTLMTALGGLSKPLSMETDDTKLSNTNETDDERHLTSQEQLLDSEATSQEPLRDGEEYIPGQDINLNFPEVITVLVNNLASSEAEIQLIALHWIQVILSISPNVFIPFLSKILSVLLKLLSDSDPHITEIAQLVNGQLLSLCSSYVGKETDGKIAYGPIVNSLTLQFFDSRIDAKIACLDWLILIYHKAPNQILKHNDSMFLTLLKSLSNRDSVLIEKALSLLQSLCSDSNDNYLRQFLQDLLTLFKRDTKLVKTRANFIMRQISSRLSPERVYKVISSILDNYNDTTFVKMMIQILSTNLITSPEMSSLRNKLRTCEDGMFFNSLFKSWCPNPVSVISLCFVAENYELAYTVLQTYANYELKLNDLVQLDILIQLFESPVFTRMRLQLLEQQKHPFLHKCLFGILMIIPQSKAFETLNRRLNSLNIWTSQSYVMNNYIRQRENSNFCDSNSDISQRSVSQSKLHFQELINHFKAVSEEDEYSSDMIRLDHGANNKSLLLGSFLDGIDEDKQEIVTPISPMNEAINEEMESPNDNSSVILKDSGSLPFNRNVSDKLKK
notes: 880 amino acid polypeptide; In the Western blot it is the endogenous protein of yeast cell extracts; also called Vac14 yeast; YLR386W product
Take B1: the binding result was “binds”.

The values are drawn from patent US20050142561A1 (published 2005).
